# Experimental data reported in patent US9428536B2, “Immunostimulatory G, U-containing oligoribonucleotides” (Zoetis Belgium SA, priority 2002, dated 2016).
# At least one compound was matched to its structure with a doubt left.
# Target: T1, human TLR7 (Homo sapiens, UniProt Q9NYK1)
# T1 construct: All full-length TLR fragments were cloned into pGEM-T Easy vector; expressed in transfected cells; host or cells: 293 HEK cells (ATCC), transient electroporation with pcDNA3.1(-) TLR expression plasmid
# T1 sequence (Q9NYK1 27-1049): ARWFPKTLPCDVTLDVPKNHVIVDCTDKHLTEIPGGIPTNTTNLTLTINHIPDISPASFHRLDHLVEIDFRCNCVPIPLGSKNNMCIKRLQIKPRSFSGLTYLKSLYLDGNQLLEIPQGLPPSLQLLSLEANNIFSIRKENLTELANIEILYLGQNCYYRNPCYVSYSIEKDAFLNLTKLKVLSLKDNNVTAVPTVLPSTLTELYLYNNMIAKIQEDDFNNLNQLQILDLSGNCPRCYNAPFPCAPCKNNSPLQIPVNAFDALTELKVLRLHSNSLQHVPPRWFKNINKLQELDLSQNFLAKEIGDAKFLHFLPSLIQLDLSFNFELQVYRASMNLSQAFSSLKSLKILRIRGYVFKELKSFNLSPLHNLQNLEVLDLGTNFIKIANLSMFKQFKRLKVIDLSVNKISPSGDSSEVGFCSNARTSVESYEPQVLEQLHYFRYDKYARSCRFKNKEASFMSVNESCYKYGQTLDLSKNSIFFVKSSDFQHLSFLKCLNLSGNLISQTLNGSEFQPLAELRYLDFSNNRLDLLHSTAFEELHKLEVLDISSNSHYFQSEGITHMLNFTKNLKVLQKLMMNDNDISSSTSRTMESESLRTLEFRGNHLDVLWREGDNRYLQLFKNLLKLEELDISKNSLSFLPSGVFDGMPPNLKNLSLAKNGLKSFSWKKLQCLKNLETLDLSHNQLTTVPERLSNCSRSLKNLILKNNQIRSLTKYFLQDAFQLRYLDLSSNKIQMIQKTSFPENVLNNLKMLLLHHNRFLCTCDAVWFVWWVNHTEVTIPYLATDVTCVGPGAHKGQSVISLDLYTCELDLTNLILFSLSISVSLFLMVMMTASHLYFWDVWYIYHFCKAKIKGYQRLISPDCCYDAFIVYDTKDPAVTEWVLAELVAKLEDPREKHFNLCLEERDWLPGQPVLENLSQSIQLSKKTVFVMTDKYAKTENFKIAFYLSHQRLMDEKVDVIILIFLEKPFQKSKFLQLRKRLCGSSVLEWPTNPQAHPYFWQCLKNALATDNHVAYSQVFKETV
# Assay: NF-κB luciferase reporter in 293 HEK cells transfected with human TLR7
# Type: cell-based
# Protocol: FIG. 12 depicts the responsiveness of human TLR7 and human TLR8 to ribonucleosides. It was determined that the response by human PBMC to RNA or RVC was mediated by TLR7 or TLR8 and further that the response could be driven by ribonucleosides only. Human 293 cells were either mock-transfected or transfected with human TLR7 or human TLR8 and monitored for responsiveness to ribonucleosides. The open reading frames of human TLR7 (hTLR7) and human TLR8 (hTLR8) were amplified by PCR from a cDNA library of human PBMC using the following primers pairs: for TLR7, 5′-[…]-3′ (SEQ ID NO:15) and 5′-[…]-3′ (SEQ ID NO:16); and for TLR8, 5′-[…]-3′ (SEQ ID NO:17) and 5′-[…]-3′ (SEQ ID NO:18). The sequence information for primer selection was obtained from Genbank accession numbers AF240467 and AF245703. All full-length TLR fragments were cloned into pGEM-T Easy vector (Promega, Mannheim, Germany), excised with NotI, cloned into the expression vector pcDNA 3.1(−) (Invitrogen, Karlsruhe, Germany) and sequenced. Sequences of the coding region of hTLR7 and hTLR8 correspond to the accession numbers AF240467 (SEQ ID NO:25) and AF245703, respectively (SEQ ID NO:29). […]
smiles,measurement,setting,value
"C=CCn1c(=O)n([C@@H]2O[C@H](CO)[C@@H](O)[C@H]2O)c2nc(N)[nH]c(=O)c21 [7-allyl-8-oxoguanosine, reference compound]",responsiveness of human TLR7,"FIG. 17, 1 mM",responsive
same,human TLR7 response to modified guanosine ribonucleosides,FIG. 18,responsive to 7-allyl-8-oxoguanosine in a dose-dependent manor
